Measurements: paper PMC5996148
Where “and” joins values, the source holds several entries; their conditions need not be identical. Equal values may be shown once. The list shows a part of the results. For some assays here: The exact form of the protein is not confirmed.

Chains of the proteins cited; added tags and fusions are not shown. Lines headed by an entry give the natural chain unless they say otherwise; changes in a name come on top.
UniProt P68400: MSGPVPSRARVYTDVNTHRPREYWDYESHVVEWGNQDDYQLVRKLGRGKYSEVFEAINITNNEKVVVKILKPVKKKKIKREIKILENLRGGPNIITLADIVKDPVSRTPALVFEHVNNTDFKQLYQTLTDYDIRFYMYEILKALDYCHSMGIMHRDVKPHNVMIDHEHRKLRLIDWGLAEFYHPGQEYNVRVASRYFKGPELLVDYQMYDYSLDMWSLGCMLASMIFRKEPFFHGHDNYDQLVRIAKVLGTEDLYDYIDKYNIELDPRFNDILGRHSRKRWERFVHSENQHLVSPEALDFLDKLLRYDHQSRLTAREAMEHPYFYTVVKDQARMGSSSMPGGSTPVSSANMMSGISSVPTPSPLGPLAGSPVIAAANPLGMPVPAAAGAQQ
UniProt P42830, whole entry: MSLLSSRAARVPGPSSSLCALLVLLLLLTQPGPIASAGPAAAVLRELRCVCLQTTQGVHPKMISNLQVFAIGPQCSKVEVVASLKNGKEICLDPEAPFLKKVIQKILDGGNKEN

Tests used:
Experiment in all cases: protein microarray (ProtoArray v5.0), streptavidin-Alexa Fluor 647
Details in all cases: 3'-biotin; 20 mM Tris (pH 7.5), 5 mM MgCl2, 100 mM KCl, 0.1% Tween-20, A/T-rich and random oligonucleotide blockers; temperature not stated; high values mean tight binding
CS (human) = system: CS (human)
CSAG1 = target: T1, CSAG1 (UniProt Q6PB30)
T1 sequence: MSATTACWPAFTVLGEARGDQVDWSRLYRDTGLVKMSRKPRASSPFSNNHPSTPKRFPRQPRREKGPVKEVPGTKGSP

CSF1 (human) = system: CSF1 (human)
CSNK2A1 = CSNK2A1 (UniProt P68400)
CST2 (human) = system: CST2 (human)
CST4 (human) = system: CST4 (human)
CST7 (human) = system: CST7 (human)
CT47.11 = target: T2, CT47.11 (UniProt Q5JQC4)
T2 sequence: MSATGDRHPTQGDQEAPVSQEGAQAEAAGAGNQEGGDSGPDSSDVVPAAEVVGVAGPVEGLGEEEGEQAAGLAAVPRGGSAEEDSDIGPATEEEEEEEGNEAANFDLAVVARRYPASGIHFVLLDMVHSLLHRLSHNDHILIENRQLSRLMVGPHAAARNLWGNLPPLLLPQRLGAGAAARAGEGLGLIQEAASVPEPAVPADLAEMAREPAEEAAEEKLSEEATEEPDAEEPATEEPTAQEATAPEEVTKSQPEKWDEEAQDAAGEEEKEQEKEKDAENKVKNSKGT

CTBP1 (human) = system: CTBP1 (human)
CTBP2 (human) = system: CTBP2 (human)
[1] = system: CTD small phosphatase-like protein (human)
CTDSP1 (human) = system: CTDSP1 (human)
CTNNA3 (human) = system: CTNNA3 (human)
CTNNB1 (human) = system: CTNNB1 (human)
CTSC (human) = system: CTSC (human)
CTSE (human) = system: CTSE (human)
CTXN1 (human) = system: CTXN1 (human)
CXCL3 (human) = system: CXCL3 (human)
CXCL5 = CXCL5 (UniProt P42830)
CYB5B (human) = system: CYB5B (human)

Sequence: GGGAGGCTGAGGCAGG [G4-1 biotinylated (PQS2)]
- binding signal (CS (human)): -0.294 z-score
- binding signal (CSAG1): 4.93 z-score
- binding signal (CSF1 (human)): -0.342 z-score
- binding signal (CSNK2A1): 5.06 z-score and 6.1 z-score
- binding signal (CST2 (human)): -0.324 z-score
- binding signal (CST4 (human)): -0.307 z-score
- binding signal (CST7 (human)): -0.323 z-score
- binding signal (CT47.11): -0.299 z-score
- binding signal (CTBP1 (human)): -0.351 z-score and -0.354 z-score
- binding signal (CTBP2 (human)): -0.319 z-score
- binding signal [1]: -0.326 z-score
- binding signal (CTDSP1 (human)): -0.317 z-score
- binding signal (CTNNA3 (human)): -0.326 z-score
- binding signal (CTNNB1 (human)): -0.36 z-score
- binding signal (CTSC (human)): -0.342 z-score
- binding signal (CTSE (human)): -0.323 z-score
- binding signal (CTXN1 (human)): -0.319 z-score
- binding signal (CXCL3 (human)): -0.276 z-score
- binding signal (CXCL5): -0.332 z-score
- binding signal (CYB5B (human)): -0.346 z-score
